# The supplement of paper PMC8728848
# This is one part of the list.
# Tests used:
# Assay in all cases: glycan array binding signal (z-score within array); higher = stronger binding
# Settings in all cases: glycan notation: IUPAC condensed, linker removed
# Gal(a1-4)Gal(b1-4)GlcNAc = target: Gal(a1-4)Gal(b1-4)GlcNAc
# Outline: (§1)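 Negative Z-scores can be read as non-binding. The Z-score is calculated within each array and then averaged across arrays of one protein sequence at different concentrations or buffers and across linkers. Arrays, 3228 in all, were curated from the Consortium for Functional Glycomics database and kept only where the protein sequence was available.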
# [1] = target: Gal(a1-4)Gal(b1-4)GlcNAc(b1-2)Man(a1-3)[Gal(a1-4)Gal(b1-4)GlcNAc(b1-2)Man(a1-6)]Man(b1-4)GlcNAc(b1-4)GlcNAc
# Outline: as §1
# [2] = target: Gal(a1-4)Gal(b1-4)GlcNAc(b1-3)Gal(b1-4)Glc
# Outline: as §1
# Gal(a1-4)GlcNAc = target: Gal(a1-4)GlcNAc
# Outline: as §1
# Gal(a1-6)Glc = target: Gal(a1-6)Glc
# Outline: as §1
# Gal(b1-2)Gal = target: Gal(b1-2)Gal
# Outline: as §1
# Gal(b1-3)Gal = target: Gal(b1-3)Gal
# Outline: as §1
# Gal(b1-3)Gal(b1-4)GlcNAc = target: Gal(b1-3)Gal(b1-4)GlcNAc
# Outline: as §1
# [3] = target: Gal(b1-3)Gal(b1-4)GlcNAc(b1-2)Man(a1-3)[Gal(b1-3)Gal(b1-4)GlcNAc(b1-2)Man(a1-6)]Man(b1-4)GlcNAc(b1-4)GlcNAc
# Outline: as §1
# Gal(b1-3)GalNAc = target: Gal(b1-3)GalNAc
# Outline: as §1
# [4] = target: Gal(b1-3)GalNAc(a1-3)[Fuc(a1-2)]Gal(b1-4)Glc
# Outline: as §1
# [5] = target: Gal(b1-3)GalNAc(a1-3)[Fuc(a1-2)]Gal(b1-4)GlcNAc
# Outline: as §1
# Gal(b1-3)GalNAc(b1-3)Gal = target: Gal(b1-3)GalNAc(b1-3)Gal
# Outline: as §1
# [6] = target: Gal(b1-3)GalNAc(b1-3)Gal(a1-4)Gal(b1-4)Glc
# Outline: as §1
# [7] = target: Gal(b1-3)GalNAc(b1-4)Gal(b1-4)Glc
# Outline: as §1
# [8] = target: Gal(b1-3)GalNAc(b1-4)[Neu5Ac(a2-3)]Gal(b1-4)Glc
# Outline: as §1
# Gal(b1-3)GlcNAc = target: Gal(b1-3)GlcNAc
# Outline: as §1
# [9] = target: Gal(b1-3)GlcNAc(a1-3)Gal(b1-4)GlcNAc
# Outline: as §1
# [10] = target: Gal(b1-3)GlcNAc(a1-6)Gal(b1-4)GlcNAc
# Outline: as §1
# Gal(b1-3)GlcNAc(b1-2)Man = target: Gal(b1-3)GlcNAc(b1-2)Man
# Outline: as §1
# [11] = target: Gal(b1-3)GlcNAc(b1-2)Man(a1-3)[Gal(b1-3)GlcNAc(b1-2)Man(a1-6)]Man(b1-4)GlcNAc(b1-4)GlcNAc
# Outline: as §1
# [12] = target: Gal(b1-3)GlcNAc(b1-2)Man(a1-3)[Gal(b1-3)GlcNAc(b1-2)Man(a1-6)]Man(b1-4)GlcNAc(b1-4)[Fuc(a1-6)]GlcNAc
# Outline: as §1
# [13] = target: Gal(b1-3)GlcNAc(b1-2)Man(a1-3)[GlcNAc(b1-4)][Gal(b1-3)GlcNAc(b1-2)Man(a1-6)]Man(b1-4)GlcNAc(b1-4)GlcNAc
# Outline: as §1
# [14] = target: Gal(b1-3)GlcNAc(b1-2)[Gal(b1-3)GlcNAc(b1-6)]Man(a1-6)[Gal(b1-3)GlcNAc(b1-2)Man(a1-3)]Man(b1-4)GlcNAc(b1-4)GlcNAc
# Outline: as §1
# [15] = target: Gal(b1-3)GlcNAc(b1-3)Gal(b1-3)GlcNAc
# Outline: as §1
# [16] = target: Gal(b1-3)GlcNAc(b1-3)Gal(b1-4)Glc
# Outline: as §1
# [17] = target: Gal(b1-3)GlcNAc(b1-3)Gal(b1-4)GlcNAc
# Outline: as §1
# [18] = target: Gal(b1-3)GlcNAc(b1-3)Gal(b1-4)GlcNAc(b1-2)Man(a1-3)[Gal(b1-3)GlcNAc(b1-3)Gal(b1-4)GlcNAc(b1-2)Man(a1-6)]Man(b1-4)GlcNAc(b1-4)GlcNAc
# Outline: as §1
# [19] = target: Gal(b1-3)GlcNAc(b1-3)Gal(b1-4)GlcNAc(b1-2)[Gal(b1-3)GlcNAc(b1-3)Gal(b1-4)GlcNAc(b1-6)]Man(a1-6)[Gal(b1-3)GlcNAc(b1-3)Gal(b1-4)GlcNAc(b1-2)Man(a1-3)]Man(b1-4)GlcNAc(b1-4)[Fuc(a1-6)]GlcNAc
# Outline: as §1
# [20] = target: Gal(b1-3)GlcNAc(b1-3)Gal(b1-4)GlcNAc(b1-3)Gal(b1-4)GlcNAc(b1-2)[Gal(b1-3)GlcNAc(b1-3)Gal(b1-4)GlcNAc(b1-3)Gal(b1-4)GlcNAc(b1-6)]Man(a1-6)[Gal(b1-3)GlcNAc(b1-3)Gal(b1-4)GlcNAc(b1-3)Gal(b1-4)GlcNAc(b1-2)Man(a1-3)]Man(b1-4)GlcNAc(b1-4)[Fuc(a1-6)]GlcNAc
# Outline: as §1
# [21] = target: Gal(b1-3)GlcNAc(b1-3)Gal(b1-4)GlcNAc(b1-6)[Gal(b1-3)GlcNAc(b1-3)]Gal(b1-4)Glc
# Outline: as §1
# [22] = target: Gal(b1-3)GlcNAc(b1-3)Gal(b1-4)[Fuc(a1-3)]GlcNAc(b1-6)[Gal(b1-3)GlcNAc(b1-3)]Gal(b1-4)Glc
# Outline: as §1
# [23] = target: Gal(b1-3)GlcNAc(b1-3)GalNAc
# Outline: as §1
# [24] = target: Gal(b1-3)GlcNAc(b1-6)Gal(b1-4)GlcNAc
# Outline: as §1
# [25] = target: Gal(b1-3)GlcNAc(b1-6)GalNAc
# Outline: as §1
# [26] = target: Gal(b1-3)GlcNAc(b1-6)[Gal(b1-3)]GalNAc
# Outline: as §1
# Gal(b1-3)GlcNAc6S = target: Gal(b1-3)GlcNAc6S
# Outline: as §1
binder,measurement,setting,value
"Gal 12 (Homo sapiens), Q96DT0 (protein) MSQPSGGRAPGTRIYSWSCPTVMSPGEKLDPIPDSFILQPPVFHPVVPYVTTIFGGLHAGKMVMLQGVVPLDAHRFQVDFQCGCSLCPRPDIAFHFNPRFHTTKPHVICNTLHGGRWQREARWPHLALRRGSSFLILFLFGNEEVKVSVNGQHFLHFRYRLPLSHVDTLGIFGDILVEAVGFLNINPFVEGSREYPAGHPFLLMSPRLEVPCSHALPQGLSPGQVIIVRGLVLQEPKHFTVSLRDQAAHAPVTLRASFADRTLAWISRWGQKKLISAPFLFYPQRFFEVLLLFQEGGLKLALNGQGLGATSMNQQALEQLRELRISGSVQLYCVHS",glycan array binding signal (z-score),Gal(a1-4)Gal(b1-4)GlcNAc,-0.049
same,glycan array binding signal (z-score),[1],-0.524
same,glycan array binding signal (z-score),[2],-0.464
same,glycan array binding signal (z-score),Gal(a1-4)GlcNAc,-0.61
same,glycan array binding signal (z-score),Gal(a1-6)Glc,-0.527
same,glycan array binding signal (z-score),Gal(b1-2)Gal,1.35
same,glycan array binding signal (z-score),Gal(b1-3)Gal,-0.751
same,glycan array binding signal (z-score),Gal(b1-3)Gal(b1-4)GlcNAc,-0.117
same,glycan array binding signal (z-score),[3],-0.507
same,glycan array binding signal (z-score),Gal(b1-3)GalNAc,-0.168
same,glycan array binding signal (z-score),[4],-0.173
same,glycan array binding signal (z-score),[5],-0.072
same,glycan array binding signal (z-score),Gal(b1-3)GalNAc(b1-3)Gal,-1.05
same,glycan array binding signal (z-score),[6],-0.445
same,glycan array binding signal (z-score),[7],-0.018
same,glycan array binding signal (z-score),[8],-0.439
same,glycan array binding signal (z-score),Gal(b1-3)GlcNAc,-0.052
same,glycan array binding signal (z-score),[9],-0.325
same,glycan array binding signal (z-score),[10],-0.349
same,glycan array binding signal (z-score),Gal(b1-3)GlcNAc(b1-2)Man,1.39
same,glycan array binding signal (z-score),[11],0.94
same,glycan array binding signal (z-score),[12],-0.24
same,glycan array binding signal (z-score),[13],-1.06
same,glycan array binding signal (z-score),[14],0.266
same,glycan array binding signal (z-score),[15],-0.421
same,glycan array binding signal (z-score),[16],-0.471
same,glycan array binding signal (z-score),[17],0.058
same,glycan array binding signal (z-score),[18],-0.574
same,glycan array binding signal (z-score),[19],-0.541
same,glycan array binding signal (z-score),[20],-0.532
same,glycan array binding signal (z-score),[21],-0.661
same,glycan array binding signal (z-score),[22],0.206
same,glycan array binding signal (z-score),[23],-0.004
same,glycan array binding signal (z-score),[24],0.021
same,glycan array binding signal (z-score),[25],-0.771
same,glycan array binding signal (z-score),[26],-0.472
same,glycan array binding signal (z-score),Gal(b1-3)GlcNAc6S,-1.73

# Some of the entries so far, tab-delimited.
binder	measurement	setting	value
Gal 12 (Homo sapiens), Q96DT0 (protein) MSQPSGGRAPGTRIYSWSCPTVMSPGEKLDPIPDSFILQPPVFHPVVPYVTTIFGGLHAGKMVMLQGVVPLDAHRFQVDFQCGCSLCPRPDIAFHFNPRFHTTKPHVICNTLHGGRWQREARWPHLALRRGSSFLILFLFGNEEVKVSVNGQHFLHFRYRLPLSHVDTLGIFGDILVEAVGFLNINPFVEGSREYPAGHPFLLMSPRLEVPCSHALPQGLSPGQVIIVRGLVLQEPKHFTVSLRDQAAHAPVTLRASFADRTLAWISRWGQKKLISAPFLFYPQRFFEVLLLFQEGGLKLALNGQGLGATSMNQQALEQLRELRISGSVQLYCVHS	glycan array binding signal (z-score)	[23]	-0.004
same	glycan array binding signal (z-score)	[24]	0.021
